According to article PMC6427064:
These are yes or no findings as the source states them, for the method shown. Sequences can lack the tags named with a protein.

What was measured:
[1] = target: His-I72X barttin (N-terminal 72 residues of barttin preceded by a His-tag) (UniProt Q8WZ55); assay: relative SDS-PAGE band intensities of MSP and barttin; barttin in MSP1D1ΔH5 (Δ5) nanodiscs, DMPC or native-like lipid mix, dialysis or on-column biobeads; purified via IMAC, before SEC; Coomassie-stained SDS-PAGE; both purified
[2] = target: His-I72X barttin (N-terminal 72 residues of barttin preceded by a His-tag) (UniProt Q8WZ55); assay: relative SDS-PAGE band intensities of MSP and barttin; barttin in MSP1D1 (D1) DMPC nanodiscs, after IMAC purification to remove empty nanodiscs; Coomassie-stained tricine SDS-PAGE; copies of barttin per nanodisc estimated; both purified

binding [1]: no binding
binding [2]: no binding
B1: His-I72X barttin (N-terminal 72 residues of barttin preceded by a His-tag) (domain or fragment, UniProt Q8WZ55 1-72)
chain: MADEKTFRIGFIVLGLFLLALGTFLMSHDRPQVYGTFYAMGSVMVIGGIIWSMCQCYPKITFVPADSDFQGI
